Assay results published in the supplement of paper PMC12823440, “Inhibitors supercharge kinase turnover through native proteolytic circuits” (Nature, 2025).
Structures can show the parent of a compound that is named as a salt. This is one part of the list. The calls rarely recur for the same compound in another form.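 Kinases, fused to nanoluciferase, were expressed in K562 cells; luminescence was measured every 4 h from 2 to 18 h as percent of control (DMSO = 100%, positive control = 0%). A time point is decreased if signal falls significantly (2 sigma). Hits were called by the authors by a rule that is not shown; the count of time points alone does not decide it.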

Amino acid sequences for entries named in this document (tags omitted). A change or cut given only in a name is not applied to a line headed by its entry.
UniProt P28482, whole entry: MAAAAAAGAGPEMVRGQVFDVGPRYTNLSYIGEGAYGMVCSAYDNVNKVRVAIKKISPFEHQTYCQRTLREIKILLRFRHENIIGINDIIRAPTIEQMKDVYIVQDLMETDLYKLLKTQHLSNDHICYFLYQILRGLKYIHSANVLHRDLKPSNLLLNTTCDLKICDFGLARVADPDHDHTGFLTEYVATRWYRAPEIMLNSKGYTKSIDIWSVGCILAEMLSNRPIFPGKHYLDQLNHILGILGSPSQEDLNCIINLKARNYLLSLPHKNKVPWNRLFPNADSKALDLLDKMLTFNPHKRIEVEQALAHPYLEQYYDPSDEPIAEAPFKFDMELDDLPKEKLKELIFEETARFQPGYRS
UniProt P49137, whole entry, looked up: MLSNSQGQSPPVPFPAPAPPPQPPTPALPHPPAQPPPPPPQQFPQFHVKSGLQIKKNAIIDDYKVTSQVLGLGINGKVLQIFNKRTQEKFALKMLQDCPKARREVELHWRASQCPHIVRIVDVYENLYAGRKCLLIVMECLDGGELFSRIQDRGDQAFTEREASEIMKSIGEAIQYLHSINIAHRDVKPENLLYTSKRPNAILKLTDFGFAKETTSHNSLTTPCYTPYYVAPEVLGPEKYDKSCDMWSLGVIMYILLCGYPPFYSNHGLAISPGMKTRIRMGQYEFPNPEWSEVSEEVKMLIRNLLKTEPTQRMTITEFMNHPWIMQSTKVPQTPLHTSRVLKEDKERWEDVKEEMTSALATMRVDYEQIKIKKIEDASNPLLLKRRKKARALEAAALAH
UniProt Q9BUB5: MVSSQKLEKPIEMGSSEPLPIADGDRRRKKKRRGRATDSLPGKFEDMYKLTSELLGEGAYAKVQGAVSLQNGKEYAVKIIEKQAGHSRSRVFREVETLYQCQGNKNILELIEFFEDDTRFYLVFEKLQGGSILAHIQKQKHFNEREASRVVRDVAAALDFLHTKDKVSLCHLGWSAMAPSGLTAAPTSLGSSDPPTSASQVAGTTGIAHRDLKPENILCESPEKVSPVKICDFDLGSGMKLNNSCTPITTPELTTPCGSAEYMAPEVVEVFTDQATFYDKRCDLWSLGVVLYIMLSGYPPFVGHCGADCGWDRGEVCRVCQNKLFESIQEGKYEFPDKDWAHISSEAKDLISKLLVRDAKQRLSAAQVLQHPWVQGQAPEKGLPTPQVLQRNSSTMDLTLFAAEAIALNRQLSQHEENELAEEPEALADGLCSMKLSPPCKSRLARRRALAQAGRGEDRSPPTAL
UniProt Q16620, whole entry, looked up: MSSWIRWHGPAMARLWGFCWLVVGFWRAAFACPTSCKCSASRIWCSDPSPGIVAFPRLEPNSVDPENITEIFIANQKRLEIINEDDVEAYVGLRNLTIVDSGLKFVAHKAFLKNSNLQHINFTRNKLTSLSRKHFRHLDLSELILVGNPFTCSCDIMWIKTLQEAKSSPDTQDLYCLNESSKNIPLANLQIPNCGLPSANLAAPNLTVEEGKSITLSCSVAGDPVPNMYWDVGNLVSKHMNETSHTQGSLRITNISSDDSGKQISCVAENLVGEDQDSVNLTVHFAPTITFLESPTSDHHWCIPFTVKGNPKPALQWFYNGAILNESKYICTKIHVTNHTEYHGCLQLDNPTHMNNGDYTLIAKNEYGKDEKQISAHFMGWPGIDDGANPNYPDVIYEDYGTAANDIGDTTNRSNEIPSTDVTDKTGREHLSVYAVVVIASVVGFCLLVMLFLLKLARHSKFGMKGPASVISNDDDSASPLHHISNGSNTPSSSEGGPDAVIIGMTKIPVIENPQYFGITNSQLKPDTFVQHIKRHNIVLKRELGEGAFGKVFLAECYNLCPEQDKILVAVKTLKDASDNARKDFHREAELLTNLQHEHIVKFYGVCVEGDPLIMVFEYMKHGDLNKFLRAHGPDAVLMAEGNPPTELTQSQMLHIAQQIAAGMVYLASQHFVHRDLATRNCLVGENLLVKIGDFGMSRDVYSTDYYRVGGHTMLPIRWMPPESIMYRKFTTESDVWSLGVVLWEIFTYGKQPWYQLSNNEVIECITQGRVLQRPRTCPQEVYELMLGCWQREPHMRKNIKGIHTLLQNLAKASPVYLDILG
UniProt O96013: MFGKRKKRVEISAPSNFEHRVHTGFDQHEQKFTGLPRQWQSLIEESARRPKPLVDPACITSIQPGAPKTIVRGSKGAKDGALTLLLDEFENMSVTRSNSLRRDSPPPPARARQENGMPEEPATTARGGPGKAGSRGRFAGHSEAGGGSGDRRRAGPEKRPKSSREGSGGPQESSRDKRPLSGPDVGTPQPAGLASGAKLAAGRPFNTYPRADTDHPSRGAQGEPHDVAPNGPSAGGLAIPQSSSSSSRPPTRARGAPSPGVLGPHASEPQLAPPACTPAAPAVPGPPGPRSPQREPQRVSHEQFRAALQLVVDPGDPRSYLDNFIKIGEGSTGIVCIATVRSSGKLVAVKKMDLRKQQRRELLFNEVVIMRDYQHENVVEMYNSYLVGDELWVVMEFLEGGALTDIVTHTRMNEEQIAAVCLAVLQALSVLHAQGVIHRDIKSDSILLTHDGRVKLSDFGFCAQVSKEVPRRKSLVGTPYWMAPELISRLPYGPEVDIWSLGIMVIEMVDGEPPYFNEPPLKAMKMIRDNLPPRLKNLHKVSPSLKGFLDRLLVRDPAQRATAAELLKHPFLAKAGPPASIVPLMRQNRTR
UniProt Q96KB5: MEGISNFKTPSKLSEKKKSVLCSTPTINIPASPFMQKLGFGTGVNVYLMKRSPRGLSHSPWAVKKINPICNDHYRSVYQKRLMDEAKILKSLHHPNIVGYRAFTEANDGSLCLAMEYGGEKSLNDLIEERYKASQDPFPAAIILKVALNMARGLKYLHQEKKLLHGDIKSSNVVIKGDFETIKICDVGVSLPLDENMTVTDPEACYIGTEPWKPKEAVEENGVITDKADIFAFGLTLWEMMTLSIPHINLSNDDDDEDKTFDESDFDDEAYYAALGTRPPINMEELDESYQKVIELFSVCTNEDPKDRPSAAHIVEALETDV
UniProt P09619, whole entry: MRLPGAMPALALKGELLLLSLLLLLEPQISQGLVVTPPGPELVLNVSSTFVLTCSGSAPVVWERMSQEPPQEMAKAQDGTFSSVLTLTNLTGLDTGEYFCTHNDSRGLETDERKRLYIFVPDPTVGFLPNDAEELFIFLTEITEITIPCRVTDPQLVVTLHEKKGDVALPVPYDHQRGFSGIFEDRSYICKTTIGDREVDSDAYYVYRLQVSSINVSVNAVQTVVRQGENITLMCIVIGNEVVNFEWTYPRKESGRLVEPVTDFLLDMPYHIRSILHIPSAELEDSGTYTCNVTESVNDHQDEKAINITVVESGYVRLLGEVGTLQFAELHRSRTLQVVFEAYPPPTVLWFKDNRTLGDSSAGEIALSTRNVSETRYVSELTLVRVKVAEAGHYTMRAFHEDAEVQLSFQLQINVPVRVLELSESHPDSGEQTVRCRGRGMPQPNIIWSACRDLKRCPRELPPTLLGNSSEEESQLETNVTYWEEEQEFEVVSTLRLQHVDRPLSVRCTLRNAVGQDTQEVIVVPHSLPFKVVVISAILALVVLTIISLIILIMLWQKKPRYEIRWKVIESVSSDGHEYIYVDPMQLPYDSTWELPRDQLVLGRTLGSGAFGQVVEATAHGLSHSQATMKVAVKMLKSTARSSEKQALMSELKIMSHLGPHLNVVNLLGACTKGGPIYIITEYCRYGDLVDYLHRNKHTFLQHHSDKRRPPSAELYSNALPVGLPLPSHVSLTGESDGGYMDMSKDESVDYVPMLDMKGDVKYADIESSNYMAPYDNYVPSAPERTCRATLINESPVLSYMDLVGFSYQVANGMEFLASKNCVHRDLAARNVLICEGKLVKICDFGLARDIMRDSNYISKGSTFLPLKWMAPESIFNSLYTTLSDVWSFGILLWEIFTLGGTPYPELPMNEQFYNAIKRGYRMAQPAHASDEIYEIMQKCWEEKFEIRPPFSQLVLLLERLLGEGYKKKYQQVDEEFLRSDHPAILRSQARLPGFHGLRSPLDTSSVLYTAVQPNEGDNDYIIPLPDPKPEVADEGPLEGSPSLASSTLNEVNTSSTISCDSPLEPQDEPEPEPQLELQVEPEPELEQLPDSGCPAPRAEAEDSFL
UniProt O15530: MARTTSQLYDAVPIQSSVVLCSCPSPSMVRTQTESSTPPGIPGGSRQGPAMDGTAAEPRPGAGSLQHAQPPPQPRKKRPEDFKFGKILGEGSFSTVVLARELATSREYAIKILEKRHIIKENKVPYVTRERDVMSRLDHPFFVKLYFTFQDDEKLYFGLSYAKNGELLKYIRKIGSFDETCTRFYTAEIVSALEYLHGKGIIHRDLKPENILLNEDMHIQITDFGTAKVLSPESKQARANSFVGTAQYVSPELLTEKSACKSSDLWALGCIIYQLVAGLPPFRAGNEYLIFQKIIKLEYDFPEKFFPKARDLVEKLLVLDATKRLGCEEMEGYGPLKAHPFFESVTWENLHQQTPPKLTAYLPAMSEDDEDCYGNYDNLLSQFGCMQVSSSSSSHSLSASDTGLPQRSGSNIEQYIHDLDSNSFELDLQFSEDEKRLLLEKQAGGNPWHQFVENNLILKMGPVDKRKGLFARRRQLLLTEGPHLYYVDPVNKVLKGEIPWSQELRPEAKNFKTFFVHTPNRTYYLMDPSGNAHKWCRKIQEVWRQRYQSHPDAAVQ
UniProt P53350, whole entry: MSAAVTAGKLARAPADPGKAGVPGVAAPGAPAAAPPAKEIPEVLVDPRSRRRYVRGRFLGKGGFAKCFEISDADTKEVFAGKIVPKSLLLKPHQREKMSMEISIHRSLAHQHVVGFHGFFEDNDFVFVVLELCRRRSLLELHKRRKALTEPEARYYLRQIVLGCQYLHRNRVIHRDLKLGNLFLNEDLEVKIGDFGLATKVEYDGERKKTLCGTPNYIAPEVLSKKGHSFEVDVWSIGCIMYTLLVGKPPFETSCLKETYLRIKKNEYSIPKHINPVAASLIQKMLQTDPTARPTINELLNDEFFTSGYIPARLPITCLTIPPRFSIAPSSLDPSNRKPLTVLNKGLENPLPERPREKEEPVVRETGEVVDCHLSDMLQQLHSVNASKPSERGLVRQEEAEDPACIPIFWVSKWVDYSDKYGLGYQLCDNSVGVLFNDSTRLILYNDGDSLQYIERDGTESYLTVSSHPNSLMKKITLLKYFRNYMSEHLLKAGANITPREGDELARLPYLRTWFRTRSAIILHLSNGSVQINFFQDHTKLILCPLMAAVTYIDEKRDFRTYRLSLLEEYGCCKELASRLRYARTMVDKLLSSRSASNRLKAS
UniProt Q13131: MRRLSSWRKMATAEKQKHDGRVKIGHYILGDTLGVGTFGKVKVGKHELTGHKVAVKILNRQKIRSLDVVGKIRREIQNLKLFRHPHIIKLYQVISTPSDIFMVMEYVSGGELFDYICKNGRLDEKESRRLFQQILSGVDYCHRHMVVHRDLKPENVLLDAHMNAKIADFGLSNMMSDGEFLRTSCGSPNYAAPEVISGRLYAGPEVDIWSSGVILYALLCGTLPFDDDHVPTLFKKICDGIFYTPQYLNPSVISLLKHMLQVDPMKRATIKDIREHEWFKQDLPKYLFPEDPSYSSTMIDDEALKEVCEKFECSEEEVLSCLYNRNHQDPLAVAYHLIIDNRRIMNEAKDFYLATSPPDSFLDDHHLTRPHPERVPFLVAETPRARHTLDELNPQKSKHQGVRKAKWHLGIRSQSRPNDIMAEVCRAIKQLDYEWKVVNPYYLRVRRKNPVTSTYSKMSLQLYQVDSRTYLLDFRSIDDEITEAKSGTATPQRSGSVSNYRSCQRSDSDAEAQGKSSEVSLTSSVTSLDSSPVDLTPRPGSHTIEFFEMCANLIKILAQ

Assays:
Assay in all cases: kinase-Nluc reporter destabilization hit call (1 = scored as downregulated) (binary); higher = compound decreases kinase abundance
Details in all cases: K562, 2-18 h
MAPK1 = MAPK1 (UniProt P28482)
MAPK4 = MAPK4 (UniProt P31152)
MAPKAPK2 = MAPKAPK2 (UniProt P49137)
MKNK1 = MKNK1 (UniProt Q9BUB5)
NTRK2 = NTRK2 (UniProt Q16620)
NTRK3 = NTRK3 (UniProt Q16288)
PAK4 = PAK4 (UniProt O96013)
PBK = PBK (UniProt Q96KB5)
PDGFRB = PDGFRB (UniProt P09619)
PDK1 = PDK1 (UniProt Q15118)
PDPK1 = PDPK1 (UniProt O15530)
PIK4CA = PIK4CA (UniProt P42356)
PIK4CB = PIK4CB (UniProt Q9UBF8)
PLK1 = PLK1 (UniProt P53350)
PRKAA1 = PRKAA1 (UniProt Q13131)
PRKCA = PRKCA (UniProt P17252)
PTK2 = PTK2 (UniProt Q05397)
PTK2B = PTK2B (UniProt Q14289)
RAF1 = RAF1 (UniProt P04049)
[1] = target: RAF1_S257L (clone: RAF1_mut) (UniProt P04049)

Measured: kinase-Nluc reporter destabilization hit call

CC(=O)c1c(C)c2cnc(Nc3ccc(N4CCNCC4)cn3)nc2n(C2CCCC2)c1=O [Palbociclib (monohydrochloride)]
inactive: MAPK1; 10 µM 0 | MAPK4; 10 µM 0 | MAPKAPK2; 10 µM 0 | MKNK1; 10 µM 0 | NTRK2; 10 µM 0 | NTRK3; 10 µM 0 | PAK4; 10 µM 0 | PBK; 10 µM 0 | PDGFRB; 10 µM 0 | PDK1; 10 µM 0 | PDPK1; 10 µM 0 | PIK4CA; 10 µM 0 | PIK4CB; 10 µM 0 | PLK1; 10 µM 0 | PRKAA1; 10 µM 0 | PRKCA; 10 µM 0 | PTK2; 10 µM 0 | PTK2B; 10 µM 0 | RAF1; 10 µM 0 | [1]; 10 µM 0

CN(C)C(=O)c1cc2cnc(Nc3ccc(N4CCNCC4)cn3)nc2n1C1CCCC1 [Ribociclib succinate]
inactive: MAPK1; 10 µM 0 | MAPK4; 10 µM 0 | MAPKAPK2; 10 µM 0 | MKNK1; 10 µM 0 | NTRK2; 10 µM 0 | NTRK3; 10 µM 0 | PAK4; 10 µM 0 | PBK; 10 µM 0 | PDGFRB; 10 µM 0 | PDK1; 10 µM 0 | PDPK1; 10 µM 0 | PIK4CA; 10 µM 0 | PIK4CB; 10 µM 0 | PLK1; 10 µM 0 | PRKAA1; 10 µM 0 | PRKCA; 10 µM 0 | PTK2; 10 µM 0 | PTK2B; 10 µM 0 | RAF1; 10 µM 0 | [1]; 10 µM 0

COC(=O)[C@H](CC(C)C)NC(=O)c1ccc(NC[C@@H](N)CS)cc1-c1cccc2ccccc12 [GGTI298 (Trifluoroacetate)]
inactive: MAPK1; 10 µM 0 | MAPK4; 10 µM 0 | MAPKAPK2; 10 µM 0 | MKNK1; 10 µM 0 | NTRK2; 10 µM 0 | NTRK3; 10 µM 0 | PAK4; 10 µM 0 | PBK; 10 µM 0 | PDGFRB; 10 µM 0 | PDK1; 10 µM 0 | PDPK1; 10 µM 0 | PIK4CA; 10 µM 0 | PIK4CB; 10 µM 0 | PLK1; 10 µM 0 | PRKAA1; 10 µM 0 | PRKCA; 10 µM 0 | PTK2; 10 µM 0 | PTK2B; 10 µM 0 | RAF1; 10 µM 0 | [1]; 10 µM 0

C=CC(=O)Nc1cc(Nc2ncc(C(=O)OC(C)C)c(-c3cn(C)c4ccccc34)n2)c(OC)cc1N(C)CCN(C)C [Mobocertinib]
inactive: MAPK1; 10 µM 0 | MAPK4; 10 µM 0 | MAPKAPK2; 10 µM 0 | MKNK1; 10 µM 0 | NTRK2; 10 µM 0 | NTRK3; 10 µM 0 | PAK4; 10 µM 0 | PBK; 10 µM 0 | PDGFRB; 10 µM 0 | PDK1; 10 µM 0 | PDPK1; 10 µM 0 | PIK4CA; 10 µM 0 | PIK4CB; 10 µM 0 | PLK1; 10 µM 0 | PRKAA1; 10 µM 0 | PRKCA; 10 µM 0 | PTK2; 10 µM 0 | PTK2B; 10 µM 0 | RAF1; 10 µM 0 | [1]; 10 µM 0

COc1cc2nccc(Oc3ccc(NC(=O)C4(C(=O)Nc5ccc(F)cc5)CC4)cc3)c2cc1OC [Cabozantinib]
inactive: MAPK1; 2.5 µM 0 | MAPK4; 2.5 µM 0 | MAPKAPK2; 2.5 µM 0 | MKNK1; 2.5 µM 0 | NTRK2; 2.5 µM 0 | NTRK3; 2.5 µM 0 | PAK4; 2.5 µM 0 | PBK; 2.5 µM 0 | PDGFRB; 2.5 µM 0 | PDK1; 2.5 µM 0 | PDPK1; 2.5 µM 0 | PIK4CA; 2.5 µM 0 | PIK4CB; 2.5 µM 0 | PLK1; 2.5 µM 0 | PRKAA1; 2.5 µM 0 | PRKCA; 2.5 µM 0 | PTK2; 2.5 µM 0 | PTK2B; 2.5 µM 0 | RAF1; 2.5 µM 0 | [1]; 2.5 µM 0

CC(=O)c1c(C)c2cnc(Nc3ccc(N4CCNCC4)cn3)nc2n(C2CCCC2)c1=O [Palbociclib (isethionate)]
inactive: MAPK1; 10 µM 0 | MAPK4; 10 µM 0 | MAPKAPK2; 10 µM 0 | MKNK1; 10 µM 0 | NTRK2; 10 µM 0 | NTRK3; 10 µM 0 | PAK4; 10 µM 0 | PBK; 10 µM 0 | PDGFRB; 10 µM 0 | PDK1; 10 µM 0 | PDPK1; 10 µM 0 | PIK4CA; 10 µM 0 | PIK4CB; 10 µM 0 | PLK1; 10 µM 0 | PRKAA1; 10 µM 0 | PRKCA; 10 µM 0 | PTK2; 10 µM 0 | PTK2B; 10 µM 0 | RAF1; 10 µM 0 | [1]; 10 µM 0

CN(C)C/C=C/C(=O)Nc1cc2c(Nc3ccc(F)c(Cl)c3)ncnc2cc1O[C@H]1CCOC1 [Afatinib]
inactive: MAPK1; 10 µM 0 | MAPK4; 10 µM 0 | MAPKAPK2; 10 µM 0 | MKNK1; 10 µM 0 | NTRK2; 10 µM 0 | NTRK3; 10 µM 0 | PAK4; 10 µM 0 | PBK; 10 µM 0 | PDGFRB; 10 µM 0 | PDK1; 10 µM 0 | PDPK1; 10 µM 0 | PIK4CA; 10 µM 0 | PIK4CB; 10 µM 0 | PLK1; 10 µM 0 | PRKAA1; 10 µM 0 | PRKCA; 10 µM 0 | PTK2; 10 µM 0 | PTK2B; 10 µM 0 | RAF1; 10 µM 0 | [1]; 10 µM 0

OCCn1cc(-c2cnc3nnn(Cc4ccc5ncccc5c4)c3n2)cn1
inactive: MAPK1; 10 µM 0 | MAPK4; 10 µM 0 | MAPKAPK2; 10 µM 0 | MKNK1; 10 µM 0 | NTRK2; 10 µM 0 | NTRK3; 10 µM 0 | PAK4; 10 µM 0 | PBK; 10 µM 0 | PDGFRB; 10 µM 0 | PDK1; 10 µM 0 | PDPK1; 10 µM 0 | PIK4CA; 10 µM 0 | PIK4CB; 10 µM 0 | PLK1; 10 µM 0 | PRKAA1; 10 µM 0 | PRKCA; 10 µM 0 | PTK2; 10 µM 0 | PTK2B; 10 µM 0 | RAF1; 10 µM 0 | [1]; 10 µM 0
